{"source": "PubChem BioAssay AID652243 (Drosophila RNAi Screening Center, 2013)", "test": "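Fly genes required for human androgen receptor driven transcription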 (primary screen)", "cells": "Drosophila S2R+ cells", "knock-down reagent": "long dsRNA against Drosophila genes", "duration": "72 h (48 h, then 24 h hormone)", "conditions": "synthetic androgen R1881 at 10 nM for 24 h", "measurement": "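Per-well raw luminescence of the androgen-driven firefly reporter and of the Renilla control, two replicates each, without normalisation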", "scale": "firefly reporter light: higher = more light from androgen-responsive reporter; Renilla control light: higher = more constitutive control signal (cell number, transfection)", "active means": "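Hit when the log firefly-to-Renilla ratio dropped or increased by a fixed fold versus the mean of GFP or LacZ controls across duplicate plates; lowering cut given as 1.5 and as 3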", "meaning of the calls": "active = hit: reporter lowered or raised; inactive = no hit", "note": "In all, the deposit lists about 24,000 reagents; this is an unselected part of those with a known target gene and a result. Of all reagents, 246 (1%) are marked active. 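Plates not normalised; calls are printed but the firefly/Renilla ratio behind them is not deposited; fold cut for lowering reported inconsistently.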 The raw values are shown without normalisation. Reagents against one gene are numbered here. The record does not give: the amount of reagent."}
{"target": "CG3123", "reagent": 1, "firefly reporter light, replicate 1": 8.34e5, "firefly reporter light, replicate 2": 8.81e5, "Renilla control light, replicate 1": 2.00e6, "Renilla control light, replicate 2": 1.83e6, "call": "inactive"}
{"target": "CG4676", "reagent": 1, "firefly reporter light, replicate 1": 1.75e5, "firefly reporter light, replicate 2": 2.02e5, "Renilla control light, replicate 1": 1.44e6, "Renilla control light, replicate 2": 1.37e6, "call": "inactive"}
{"target": "CG42724", "reagent": 1, "firefly reporter light, replicate 1": 50364, "firefly reporter light, replicate 2": 11159, "Renilla control light, replicate 1": 2.48e5, "Renilla control light, replicate 2": 77805, "call": "inactive"}
{"target": "CG42724", "reagent": 2, "firefly reporter light, replicate 1": 3.13e5, "firefly reporter light, replicate 2": 2.74e5, "Renilla control light, replicate 1": 1.94e6, "Renilla control light, replicate 2": 1.54e6, "call": "active"}
{"target": "CG42724", "reagent": 3, "firefly reporter light, replicate 1": 4.57e5, "firefly reporter light, replicate 2": 8.81e5, "Renilla control light, replicate 1": 6.09e5, "Renilla control light, replicate 2": 7.53e5, "call": "inactive"}
{"target": "CG42724", "reagent": 4, "firefly reporter light, replicate 1": 9.31e5, "firefly reporter light, replicate 2": 8.15e5, "Renilla control light, replicate 1": 9.98e5, "Renilla control light, replicate 2": 1.14e6, "call": "inactive"}
{"target": "CG14854", "reagent": 1, "firefly reporter light, replicate 1": 1.42e5, "firefly reporter light, replicate 2": 1.62e5, "Renilla control light, replicate 1": 2.24e6, "Renilla control light, replicate 2": 2.79e6, "call": "inactive"}
{"target": "CG33521", "reagent": 1, "firefly reporter light, replicate 1": 3.65e5, "firefly reporter light, replicate 2": 3.24e5, "Renilla control light, replicate 1": 3.37e6, "Renilla control light, replicate 2": 1.77e6, "call": "inactive"}
{"target": "CG33521", "reagent": 2, "firefly reporter light, replicate 1": 4.19e5, "firefly reporter light, replicate 2": 8.00e5, "Renilla control light, replicate 1": 9.54e5, "Renilla control light, replicate 2": 2.22e6, "call": "inactive"}
{"target": "CG33521", "reagent": 3, "firefly reporter light, replicate 1": 6.37e5, "firefly reporter light, replicate 2": 4.91e5, "Renilla control light, replicate 1": 1.16e6, "Renilla control light, replicate 2": 1.29e6, "call": "inactive"}
{"target": "Gpo1 (Glycerophosphate oxidase 1)", "reagent": 1, "firefly reporter light, replicate 1": 1.56e6, "firefly reporter light, replicate 2": 1.43e6, "Renilla control light, replicate 1": 2.84e6, "Renilla control light, replicate 2": 2.61e6, "call": "inactive"}

Records listed above called active, once more:
{"target": "CG42724", "reagent": 2, "firefly reporter light, replicate 1": 3.13e5, "firefly reporter light, replicate 2": 2.74e5, "Renilla control light, replicate 1": 1.94e6, "Renilla control light, replicate 2": 1.54e6, "call": "active"}

Continued:
{"target": "Lmpt (Limpet)", "reagent": 1, "firefly reporter light, replicate 1": 50999, "firefly reporter light, replicate 2": 35518, "Renilla control light, replicate 1": 6.65e5, "Renilla control light, replicate 2": 5.43e5, "call": "active"}
{"target": "Lmpt (Limpet)", "reagent": 2, "firefly reporter light, replicate 1": 2.80e5, "firefly reporter light, replicate 2": 2.25e5, "Renilla control light, replicate 1": 2.47e6, "Renilla control light, replicate 2": 2.41e6, "call": "inactive"}
{"target": "Lmpt (Limpet)", "reagent": 3, "firefly reporter light, replicate 1": 39807, "firefly reporter light, replicate 2": 34345, "Renilla control light, replicate 1": 4.96e5, "Renilla control light, replicate 2": 3.83e5, "call": "inactive"}
{"target": "Lmpt (Limpet)", "reagent": 4, "firefly reporter light, replicate 1": 3.16e5, "firefly reporter light, replicate 2": 2.55e5, "Renilla control light, replicate 1": 2.15e6, "Renilla control light, replicate 2": 2.43e6, "call": "inactive"}
{"target": "Lmpt (Limpet)", "reagent": 5, "firefly reporter light, replicate 1": 3.15e5, "firefly reporter light, replicate 2": 2.95e5, "Renilla control light, replicate 1": 3.44e6, "Renilla control light, replicate 2": 3.53e6, "call": "inactive"}
{"target": "Lmpt (Limpet)", "reagent": 6, "firefly reporter light, replicate 1": 4.40e5, "firefly reporter light, replicate 2": 5.93e5, "Renilla control light, replicate 1": 2.12e6, "Renilla control light, replicate 2": 2.81e6, "call": "inactive"}
{"target": "Lmpt (Limpet)", "reagent": 7, "firefly reporter light, replicate 1": 4.44e5, "firefly reporter light, replicate 2": 8.61e5, "Renilla control light, replicate 1": 8.57e5, "Renilla control light, replicate 2": 1.88e6, "call": "inactive"}
{"target": "Lmpt (Limpet)", "reagent": 8, "firefly reporter light, replicate 1": 4.08e5, "firefly reporter light, replicate 2": 5.55e5, "Renilla control light, replicate 1": 4.86e5, "Renilla control light, replicate 2": 5.88e5, "call": "inactive"}
{"target": "Lmpt (Limpet)", "reagent": 9, "firefly reporter light, replicate 1": 8.94e5, "firefly reporter light, replicate 2": 1.11e6, "Renilla control light, replicate 1": 1.05e6, "Renilla control light, replicate 2": 1.31e6, "call": "inactive"}
{"target": "Lmpt (Limpet)", "reagent": 10, "firefly reporter light, replicate 1": 5.45e5, "firefly reporter light, replicate 2": 6.34e5, "Renilla control light, replicate 1": 1.25e6, "Renilla control light, replicate 2": 1.16e6, "call": "inactive"}
